Results from patent publication US20050249668A1, “Nir-fluorescent cyanine dyes, their synthesis and biological use” (priority 2002, published 2005).
Some entries share one result that the patent states for a list of compounds. At least one structure is not confirmed: it was looked up by name or label, or the drawing left a doubt.

Test: Absorbance maxima and extinction coefficients of fluorochrome dyes (spectrophotometer)
Format: physicochemical

| SMILES | stability |
| --- | --- |
| CC[N+]1=C(C=CC=CC=CC=C2N(C)c3ccc(NC(=O)CI)cc3C2(C)C)C(C)(C)c2c1ccc1c(S(=O)(=O)[O-])cc(S(=O)(=O)[O-])cc21.[K+] [NIR9] | stable |
| CC[N+]1=C(C=CC=CC=C2N(C)c3ccc(NC(=O)CI)cc3C2(C)C)C(C)(C)c2c1ccc1c(S(=O)(=O)[O-])cc(S(=O)(=O)[O-])cc21.[K+] [NIR10] | stable |
| CN1C(=CC=CC=CC=CC2=[N+](CCCCS(=O)(=O)[O-])c3ccc4c(S(=O)(=O)[O-])cc(S(=O)(=O)[O-])cc4c3C2(C)C)C(C)(C)c2cc(NC(=O)CI)ccc21.[K+].[K+] [NIR11] | stable |
| CN1C(=CC=CC=CC2=[N+](CCCCS(=O)(=O)[O-])c3ccc4c(S(=O)(=O)[O-])cc(S(=O)(=O)[O-])cc4c3C2(C)C)C(C)(C)c2cc(NC(=O)CI)ccc21.[K+].[K+] [NIR12] | stable |
